# Structures can show the parent of a compound that is named as a salt. The list shows a part of the results. Repeats in this data set agree poorly, so a single value says little.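 ReNCell VM, a human fetal ventral-midbrain neural progenitor line, was differentiated without mitogens. Blinded raters scored images stained for doublecortin (early neurons) or tyrosine hydroxylase (dopaminergic neurons) against untreated wells (0 = no change). Scores were averaged across repeats and both raters, and compounds averaging 2 or more were selected as hits for retesting.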
# Tests used:
# [1] = tested on: ReNCell VM; assay: neuronal differentiation score (DCX+ cell fraction vs untreated, manual image score) (score (-3 to 3)); higher = more neuronal differentiation; conditions: 2 uM, 2 weeks
# [2] = tested on: ReNCell VM; assay: dopaminergic neuron differentiation score (TH+ cell fraction vs untreated, manual image score) (score (0 to 3)); higher = more TH+ dopaminergic neuron differentiation; conditions: 2 uM, 4 weeks, BDNF 10 ng/ml + GDNF 10 ng/ml
structure (smiles),measurement,setting,value
CCN(CC)C(C)CN1c2ccccc2Sc2ccccc21 (centres undefined) [Ethopropazine hydrochloride],neuronal differentiation score,[1]; library: Prestwick,inactive: 0
same,dopaminergic neuron differentiation score,[2]; library: Prestwick,inactive: 0
CC(=O)Oc1cc(C(C)C)c(OCCN(C)C)cc1C,neuronal differentiation score,[1]; library: Spectrum,inactive: 0
same,dopaminergic neuron differentiation score,[2]; library: Spectrum,inactive: 0
"O=c1oc2ccccc2c(O)c1Cc1c(O)c2ccccc2oc1=O [3,3'-methylene-bis(4-hydroxycoumarin)]",neuronal differentiation score,[1]; library: Phytochemical,inactive: 0
same,dopaminergic neuron differentiation score,[2]; library: Phytochemical,inactive: 0
COc1ccc(/C=C/C(=O)Nc2ccccc2C(=O)O)cc1OC,neuronal differentiation score,[1]; library: Spectrum,inactive: 0
same,dopaminergic neuron differentiation score,[2]; library: Spectrum,inactive: 0
CCCCOC(=O)NS(=O)(=O)c1sc(CC(C)C)cc1-c1ccc(Cn2c(CC)nc3c(C)cc(C)nc32)cc1,neuronal differentiation score,[1]; library: LOPAC,inactive: 0
same,dopaminergic neuron differentiation score,[2]; library: LOPAC,inactive: 0
Cc1cc(C(=O)O)sc1C(N)C(=O)O (centres undefined),neuronal differentiation score,[1]; library: Tocriscreen,inactive: 0
same,dopaminergic neuron differentiation score,[2]; library: Tocriscreen,inactive: 0
Nc1nc(Cl)nc2c1ncn2[C@@H]1O[C@H](COP(=O)(O)OP(=O)(O)OP(=O)(O)O)[C@H](O)C1O (some centres undefined) [2-Chloroadenosine triphosphate tetrasodium],neuronal differentiation score,[1]; library: LOPAC,inactive: -3
same,dopaminergic neuron differentiation score,[2]; library: LOPAC,inactive: 0
CCOc1ccc(Cc2nccc3cc(OCC)c(OCC)cc23)cc1OCC [Ethaverine hydrochloride],neuronal differentiation score,[1]; library: Prestwick,inactive: 0
same,dopaminergic neuron differentiation score,[2]; library: Prestwick,inactive: 1
COc1ccccc1OCCNCC(O)COc1cccc2[nH]c3ccccc3c12 (centres undefined),neuronal differentiation score,[1]; library: Spectrum,inactive: 0
same,dopaminergic neuron differentiation score,[2]; library: Spectrum,inactive: 0
CCN(CC)CCNc1ccc(CO)c2sc3ccccc3c(=O)c12 [Hycanthone],neuronal differentiation score,[1]; library: Prestwick,inactive: 0
same,dopaminergic neuron differentiation score,[2]; library: Prestwick,inactive: 0
COc1cccc2c1C(=O)c1c(O)c3c(c(O)c1C2=O)C[C@@](O)(C(=O)CO)C[C@@H]3O[C@H]1C[C@H](N)[C@H](O)[C@H](C)O1 [adriamycin],neuronal differentiation score,[1]; library: Natural,inactive: 0
same,dopaminergic neuron differentiation score,[2]; library: Natural,inactive: 0
CC(C)(C)c1cc(/C=C(\C#N)C(N)=S)cc(C(C)(C)C)c1O [Tyrphostin AG 879],neuronal differentiation score,[1]; library: LOPAC,inactive: 0
same,dopaminergic neuron differentiation score,[2]; library: LOPAC,inactive: 0
N=C(N)NCCC[C@H](N)C(=O)O [L-Arginine],neuronal differentiation score,[1]; library: LOPAC,inactive: 0
same,dopaminergic neuron differentiation score,[2]; library: LOPAC,inactive: 0
CCN(CC)CCNC(=O)c1ccc(N)cc1,neuronal differentiation score,[1]; library: Spectrum,inactive: 0
same,dopaminergic neuron differentiation score,[2]; library: Spectrum,inactive: 0
CCC(CC)(CC(=O)Nc1cccc(/C=C/c2nc(C3CCC3)cs2)c1)C(=O)O [Cinalukast],neuronal differentiation score,[1]; library: Tocriscreen,inactive: 0
same,dopaminergic neuron differentiation score,[2]; library: Tocriscreen,inactive: 0
CC(=O)Oc1cc2c(c(C)c1OC(C)=O)CC=C1[C@@]2(C)CC[C@@]2(C)C3C[C@](C)(C(=O)O)CC[C@]3(C)CC[C@]12C (some centres undefined),neuronal differentiation score,[1]; library: Spectrum,inactive: 0
same,dopaminergic neuron differentiation score,[2]; library: Spectrum,inactive: 0
O=c1[nH]c(=O)n([C@H]2C[C@H](O)[C@@H](CO)O2)cc1I [Idoxuridine],neuronal differentiation score,[1]; library: Prestwick,inactive: 0
same,dopaminergic neuron differentiation score,[2]; library: Prestwick,inactive: 0
COc1ccc2nc3cc(Cl)ccc3c(Nc3cc(CN4CCCC4)c(O)c(CN4CCCC4)c3)c2n1,neuronal differentiation score,[1]; library: Spectrum,inactive: 0
same,dopaminergic neuron differentiation score,[2]; library: Spectrum,inactive: 0
CC1=C(/C=C/C(C)=C/C=C/C(C)=C\C(=O)O)C(C)(C)CCC1 [13-cis-retinoic acid],neuronal differentiation score,[1]; library: LOPAC,active: 2
same,dopaminergic neuron differentiation score,[2]; library: LOPAC,inactive: 0
Nc1ncnc2c1ncn2C1OC(COP(=O)(O)O)C(O)C1O (centres undefined) [Adenosine 5'-monophosphate monohydrate],neuronal differentiation score,[1]; library: Prestwick,inactive: 0
same,dopaminergic neuron differentiation score,[2]; library: Prestwick,inactive: 0
CC(=O)SCC(Cc1ccccc1)C(=O)NCC(=O)OCc1ccccc1 (centres undefined),neuronal differentiation score,[1]; library: Spectrum,inactive: 0
same,dopaminergic neuron differentiation score,[2]; library: Spectrum,inactive: 0
CC(=O)O[C@@H]1CC2C(C)(CC[C@H](O)C2(C)C)C2CC[C@]3(C)C(=CC(=O)O[C@H]3c3ccoc3)C21C (stereo partly drawn) [3beta-HYDROXYDEOXODIHYDRODEOXYGEDUNIN],neuronal differentiation score,[1]; library: Spectrum,inactive: -1
same,dopaminergic neuron differentiation score,[2]; library: Spectrum,inactive: 0
N[C@H](C(=O)O)c1ccc(O)c(C(=O)O)c1 [(S)-3-Carboxy-4-hydroxyphenylglycine],neuronal differentiation score,[1]; library: Tocriscreen,inactive: 0
same,dopaminergic neuron differentiation score,[2]; library: Tocriscreen,inactive: 0
C[n+]1cc2c3c(ccc2c2ccc4cc5c(cc4c21)OCO5)OCO3 [Sanguinarine],neuronal differentiation score,[1]; library: Phytochemical,inactive: 0
same,dopaminergic neuron differentiation score,[2]; library: Phytochemical,inactive: 0
CN(C)CCCC1(c2ccc(F)cc2)OCc2cc(C#N)ccc21 (centres undefined),neuronal differentiation score,[1]; library: Spectrum,inactive: -1
same,dopaminergic neuron differentiation score,[2]; library: Spectrum,inactive: 0
N[C@@H](Cc1ccccc1)C(=O)O,neuronal differentiation score,[1]; library: Spectrum,inactive: 0
same,dopaminergic neuron differentiation score,[2]; library: Spectrum,inactive: 0
CCC(=O)c1ccc(O)cc1,neuronal differentiation score,[1]; library: Spectrum,inactive: 0
same,dopaminergic neuron differentiation score,[2]; library: Spectrum,inactive: 0
Cc1ccccc1/C=C/C1=NCCN1 [Metrazoline oxalate],neuronal differentiation score,[1]; library: LOPAC,inactive: 0
same,dopaminergic neuron differentiation score,[2]; library: LOPAC,inactive: 0
CC(C)C(C)C=CC(C)C1CCC2C3=CC=C4CC(O)CCC4(C)C3CCC21C (centres undefined) [Ergosterine],neuronal differentiation score,[1]; library: Phytochemical,inactive: 0
same,dopaminergic neuron differentiation score,[2]; library: Phytochemical,inactive: 0
Clc1cc(Cl)c(OCC#CI)cc1Cl [Haloprogin],neuronal differentiation score,[1]; library: Prestwick,inactive: 0
same,dopaminergic neuron differentiation score,[2]; library: Prestwick,inactive: 0
COc1ccccc1N1CCN(CC(O)COc2cccc3ccccc23)CC1 (centres undefined) [Naftopidil hydrochloride],neuronal differentiation score,[1]; library: Tocriscreen,inactive: 0
same,dopaminergic neuron differentiation score,[2]; library: Tocriscreen,inactive: 0
CNC(=N)NCCC[C@H](N)C(=O)O [NG-Monomethyl-L-arginine acetate],neuronal differentiation score,[1]; library: LOPAC,inactive: 0
same,dopaminergic neuron differentiation score,[2]; library: LOPAC,inactive: 0

# Rewritten with bars between the fields: part of the list above.
structure (smiles) | measurement | setting | value
Cc1cc(C(=O)O)sc1C(N)C(=O)O (centres undefined) | neuronal differentiation score | [1]; library: Tocriscreen | inactive: 0
CCN(CC)CCNc1ccc(CO)c2sc3ccccc3c(=O)c12 [Hycanthone] | dopaminergic neuron differentiation score | [2]; library: Prestwick | inactive: 0
CC(C)(C)c1cc(/C=C(\C#N)C(N)=S)cc(C(C)(C)C)c1O [Tyrphostin AG 879] | neuronal differentiation score | [1]; library: LOPAC | inactive: 0
same | dopaminergic neuron differentiation score | [2]; library: LOPAC | inactive: 0
